First the molecules themselves.
B1: il2ra_site2_2erj_sap_27_mot_HHH_eva_0077_000000062_0001_1_20_H_._ems_3hM_3632_0001_0000100009_0000001_0_0001 (protein)
chain: SSSLHETYELAVEALHEISRLLEEGNPEEAEKVLEEFLERLRELDDPNAAELLEDDFRATHSSSS
B2: il2ra_site1_1z92_normal_mot_30aa582283ecb64a35315be28fff3e94_0001_000000110_0001_35_49_H_._HHH_b1_02957_af2_0001_0000100017_0000001_0_af2pred_0001_af2pred_1 (protein)
chain: SSSSDSRERLAERLVEDLVRLAGLSEEQKEELEKVAEELVREGVDPHEIAKILEKLALELESSSS
B3: il2ra_site2_3nfp_sap_21_mot_HHH_b1_06006_000000068_0001_18_35_H_._c31511196a668cb7f26710e5913b1740_0001_1_af2_0001_0000200010_0000001_0_0001 (protein)
chain: SSSSNKAEEYVEAVLLIAERALEQGNPELAERSLRLAEQVAELHGNEELRERLEELLEKLSSSSS
B4: il2ra_site2_2erj_sap_24_mot_a018c15928f351c43b00908d5a7ba3e0_0001_000000190_0001_17_32_H_._64acf9c47b58a7ae4252630f76d6e6b2_0001_1_0001_0000300012_0000001_0_000 … (protein)
chain: SSSSDLEEEAERLVEELVREFGADERLELFLRLLAKKLARAGLSPEEIERALREAIELHRSSSSS
B5: il2ra_site1_3nfp_sap_16_mot_HHH_b1_02896_af2_000000287_0001_1_17_H_._HHH_b2_04362_0001_0000100002_0000001_0_0001 (protein)
chain: SEEEKKEEISELLGVPPEEVERAVENLARRYRFPPEEALIILLRAARRAEKNPSARFAVENLLKI
B6: il2ra_site2_2erj_sap_23_mot_HHH_b2_00138_000000178_0001_20_37_H_._HHH_b2_00033_0001_0000500016_0000001_0_0001 (protein)
chain: SSSSYEVLKRVMELLAEAMRAAWEGDPELVRELLEEAKELAEEHDNEDLERLIEEVEHNLRSSSS
B7: il2ra_site2_2erj_sap_24_mot_HHH_b1_03609_af2_000000077_0001_42_55_H_._HHH_b1_06534_0001_0000200004_0000001_0_0001 (protein)
chain: SSSSSEEEIRELIEQAKELLEEGNPEEALKILLRAFHLAYQLGDEELIILVSELAAEIARQSSSS
B8: il2ra_site1_3nfp_sap_13_mot_HHH_b1_00258_000000025_0001_42_56_H_._HHH_b2_02568_0001_0000100003_0000001_0_0001 (protein)
chain: SSSSDETRRRTQELMKRAREASRQGDDEEAEELIREAIEIAEEVNDEIAVKFLEDLLRLLRSSSS
B9: il2ra_site2_2erj_sap_19_mot_e1dd4851c59bc1cdde016f988f6856bd_0001_1_000000110_0001_52_65_H_._HHH_b1_04086_af2_0001_0000100008_0000001_1_0001 (protein)
chain: SSSSSSDEYEEEVEELLEEAKKIEDLHRVYELAVRALHIAAKNQDQELQREVAKVAEELSSSSSS
B10: il2ra_site1_3nfp_normal_mot_HHH_b1_08723_000000044_0001_1_15_H_._HHH_b2_03161_0001_0000300014_0000001_1 (protein)
chain: SSSSDRSERLEELFRELFEAAQRDDPELIEELARELLELARENNSKALERSAEWALEWVNSSSSS
B11: il2ra_site2_2erj_normal_mot_HHH_b2_07875_af2_000000009_0001_3_16_H_._eb5a5eebac1e5153f932cc6c3f4b2787_0001_af2_0001_0000400006_0000001_0_af2pred_0001_1_af2pred_ … (protein)
chain: SLLRRIARLLLELASLSPEATEVVLEISELLEEGDKEQIKRLLEELLELLGDPKVEELIELIERL
B12: il2ra_site2_3nfp_normal_mot_ems_p1-15H-GBL-16H-GBL-14H_0089_0001_0001_0001_af2_000000072_0001_19_33_H_._HHH_b1_04641_0001_0000300033_0000001_0 (protein)
chain: SSSSDEEEEEVERLLKRIEELIKNGNPEEARELLRRVTHLAYELRDFELFARVAELALLLASSSS
B13: il2ra_site1_2b5i_normal_mot_HHH_b1_05188_af2_000000065_0001_43_56_H_._HHH_b1_02449_af2_0001_0000400038_0000001_0_af2pred_0001_af2pred (protein)
chain: SSSSSDEDEEVLEVYRQASRAYSNGNPEEAEELLREALKLAEEANNPVAVEELRRFLERLSSSSS
B14: il2ra_site2_3nfp_normal_mot_HHH_b1_07095_000000265_0001_1_20_H_._HHH_b2_06077_af2_0001_0000200003_0000001_0 (protein)
chain: SSSSDIEEEVEKLLEKAKELLEEGDEEEARRALARAAHLAAELRDFELFALVNEVLELLGSSSSS
B15: il2ra_site1_2b5i_normal_mot_HHH_b1_02271_000000068_0001_1_16_H_._HHH_b1_04985_0001_0000600019_0000001_0_af2pred_dldesign_0_af2pred (protein)
chain: SSSSSSRREALLEAEKLYKESFKVSPEEAKELLKKLKEIAEKYKDPTIAKAIEDLEYFLKSSSSS
B16: il2ra_site2_3nfp_normal_mot_HHH_b2_07065_af2_000000058_0001_38_52_H_._HHH_b2_01690_0001_0000300026_0000001_0 (protein)
chain: SSSSDDREEHLRAALLLLEEALKEGNEELFRRIAELIEKAAEDAKDEEVEERVRELLEEFDSSSS
B17: il2ra_site1_2b5i_normal_mot_HHH_b1_07881_af2_000000049_0001_1_19_H_._HHH_b2_01648_af2_0002_0000300029_0000001_0_af2pred_0001_af2pred (protein)
chain: SSSSDEFERLLELYREASRLFRNGNPEEARELLEEAEELAKELGDELARKQLRHLLERLRSSSSS
B18: il2ra_site1_3nfp_normal_mot_40ac32ce855e0fd9c7bcc7eb247393e9_0001_000000113_0001_1_14_H_._HHH_b1_06808_af2_0001_0000600035_0000001_0 (protein)
chain: SSSSSDAVEYAVEALVKDFNLSEEQKEELEELAEELERRGVNAREVFRILLERAKELANSSSSSS
B19: il2ra_site2_3nfp_sap_20_mot_HHH_b2_08245_000000023_0001_41_55_H_._HHH_b2_02790_0001_0000100006_0000001_0_0001 (protein)
chain: SSSSSDEEEERVEELLERAKHIEDDEERRRLLAEAAHLAFENNNSELFFAVAEVLFELEQSSSSS

This is one part of the list.

The target in this assay is il2ra, P01589. The assay can be described thus: yeast display titration.
For B1, the “apparent Kd” value is “inactive: no binding seen”. In the case of B2, the “apparent Kd” value is “inactive: no binding seen”.

Consider B3, for which the “apparent Kd” value is “inactive: no binding seen”. B4: the “apparent Kd” value is “inactive: no binding seen”.

In the case of B5, the “apparent Kd” value is “inactive: no binding seen”. Under B6 stands “inactive: no binding seen”. Under B7 stands “inactive: no binding seen”; under B8, “inactive: no binding seen”. Under B9 stands “inactive: no binding seen”.

With B10, the “apparent Kd” value is “inactive: no binding seen”.

Regarding B11, the “apparent Kd” value is “inactive: no binding seen”.

As for B12, the “apparent Kd” value was “inactive: no binding seen”.

For B13, the “apparent Kd” value was “inactive: no binding seen”. As to B14, the “apparent Kd” value was “inactive: no binding seen”. The result for B15 reads “inactive: no binding seen”.

As to B16, the “apparent Kd” value was “inactive: no binding seen”. Turning to B17, the “apparent Kd” value was “inactive: no binding seen”. The result for B18 reads “inactive: no binding seen”; that for B19, “inactive: no binding seen”.

The record behind these values is paper PMC10163288.
